# System: male C57BL/Ks db/db mice
# Assay: Body composition (Bruker NMR), food intake and liver in db/db mice
# Type: in vivo, mouse
# Settings: dietary curcumin (3%)
compound,measurement,setting,value
COc1cc(/C=C/C(=O)CC(=O)/C=C/c2ccc(O)c(OC)c2)ccc1O [curcumin],liver weight,db/db mice,An increase in liver weight
same,food intake,db/db mice vs control cohort,ate less

# — US20100240581A1, “SELECTIVE PROTEASOME INHIBITORS FOR TREATING DIABETES” (The Trustees of Columbia University in the City of New York, priority 2006, published 2010)
